{"source": "paper PMC7571425", "about": "(Antiviral Research, 2020)", "tested_on": "hPSC-CMs", "assay": "Electrophysiological characterization of hPSC-CMs", "type": "cell-based, human", "conditions": "1 μM"}
{"smiles": "COC(=O)C1=C(C)NC(C)=C(C(=O)OC)C1c1ccccc1[N+](=O)[O-]", "note": "[nifedipine, Nifedipine]", "values": [{"measurement": "action potential duration (APD) and repolarization", "value": "shortened"}]}
